Assay results taken from paper PMC6197854.
Results are given in words; binding and its absence hold for the method and conditions named. For some assays here: In cells and extracts the contact can be indirect. Some entries that bind do so weakly or less than the wild type. For some assays here: Tags and fused reporters may be left off the sequences shown. Each block holds one binder with its values, some of them ahead of it.

Amino acid sequences for entries named in this document (tags omitted). Residues count along the entry.
UniProt Q05909, residues 20-733: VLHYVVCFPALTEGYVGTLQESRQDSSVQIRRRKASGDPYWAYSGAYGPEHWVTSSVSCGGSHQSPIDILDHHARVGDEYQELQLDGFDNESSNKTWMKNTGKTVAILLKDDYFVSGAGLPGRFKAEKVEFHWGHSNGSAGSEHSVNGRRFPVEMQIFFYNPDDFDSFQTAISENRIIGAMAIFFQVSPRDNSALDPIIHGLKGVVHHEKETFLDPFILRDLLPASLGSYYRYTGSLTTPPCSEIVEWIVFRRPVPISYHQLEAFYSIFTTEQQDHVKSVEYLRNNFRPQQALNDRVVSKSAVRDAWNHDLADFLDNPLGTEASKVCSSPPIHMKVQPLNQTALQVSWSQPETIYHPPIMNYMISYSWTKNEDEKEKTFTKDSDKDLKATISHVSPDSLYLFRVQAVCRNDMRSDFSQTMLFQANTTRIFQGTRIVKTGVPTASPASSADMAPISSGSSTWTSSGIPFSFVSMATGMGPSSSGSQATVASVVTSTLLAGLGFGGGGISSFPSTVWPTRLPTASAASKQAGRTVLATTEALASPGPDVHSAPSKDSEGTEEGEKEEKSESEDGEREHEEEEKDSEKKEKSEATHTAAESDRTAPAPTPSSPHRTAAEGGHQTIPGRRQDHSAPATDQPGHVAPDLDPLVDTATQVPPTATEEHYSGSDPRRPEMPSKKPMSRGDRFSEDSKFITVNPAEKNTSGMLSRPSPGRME
UniProt P12023, residues 18-701: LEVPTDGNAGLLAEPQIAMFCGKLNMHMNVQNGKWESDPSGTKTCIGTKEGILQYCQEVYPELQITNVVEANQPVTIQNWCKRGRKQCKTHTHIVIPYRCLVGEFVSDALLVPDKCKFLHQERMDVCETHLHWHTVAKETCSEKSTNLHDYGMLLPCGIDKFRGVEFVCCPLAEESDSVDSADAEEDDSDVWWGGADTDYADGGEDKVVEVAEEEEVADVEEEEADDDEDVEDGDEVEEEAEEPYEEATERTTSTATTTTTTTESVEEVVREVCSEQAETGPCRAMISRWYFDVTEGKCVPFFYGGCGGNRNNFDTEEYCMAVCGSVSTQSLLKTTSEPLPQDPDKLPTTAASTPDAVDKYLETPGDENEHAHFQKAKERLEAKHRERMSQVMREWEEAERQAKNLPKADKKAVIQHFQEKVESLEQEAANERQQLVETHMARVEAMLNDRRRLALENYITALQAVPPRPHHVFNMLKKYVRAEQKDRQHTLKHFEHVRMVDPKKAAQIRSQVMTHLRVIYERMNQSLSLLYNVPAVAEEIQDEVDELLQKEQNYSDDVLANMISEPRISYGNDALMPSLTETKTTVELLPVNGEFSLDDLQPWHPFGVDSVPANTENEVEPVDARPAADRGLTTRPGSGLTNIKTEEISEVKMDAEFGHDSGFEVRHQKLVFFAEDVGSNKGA

Key:
LRTM2-Fc (mouse) [1] = target: T1, LRTM2-Fc (mouse) (UniProt Q8BGX3); experiment: ACAPseq (affinity capture of polyribosomes followed by RNAseq); bait-Fc (~10 ug) on Protein-G magnetic beads; 40 ug neonatal mouse brain polyribosomes in 600 ul binding buffer (25 mM Tris pH 7.5, 150 mM KCl, 15 mM MgCl2, 1 mM CaCl2, 250 mM sucrose, 0.5% Igepal-630, 0.5% sodium deoxycholate, cyclohexamide, heparin), overnight at 4°C; captured mRNA sequenced; only the target purified
T1 sequence: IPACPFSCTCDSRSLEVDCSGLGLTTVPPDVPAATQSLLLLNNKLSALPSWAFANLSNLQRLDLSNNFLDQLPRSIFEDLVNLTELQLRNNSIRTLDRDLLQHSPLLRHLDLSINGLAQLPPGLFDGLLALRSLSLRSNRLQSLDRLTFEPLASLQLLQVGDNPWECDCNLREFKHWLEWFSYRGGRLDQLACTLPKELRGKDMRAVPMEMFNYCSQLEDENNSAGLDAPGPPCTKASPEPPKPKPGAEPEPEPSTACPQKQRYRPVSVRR

LRTM2-Fc (mouse) [2] = target: T1, LRTM2-Fc (mouse); experiment: pull-down; LRTM2-Fc on protein-A sepharose beads; clarified lysate of transfected HEK293T cells in RIPA buffer with 0.1% BSA, 1 mM CaCl2, 1 mM MgCl2, overnight at 4°C; immunoblot for the OLLAS epitope; only the target purified
PTPRG-Fc (mouse) = PTPRG-Fc (mouse) (UniProt Q05909); experiment: ACAPseq (affinity capture of polyribosomes followed by RNAseq); bait-Fc (~10 ug) on Protein-G magnetic beads; 40 ug neonatal mouse brain polyribosomes in 600 ul binding buffer (25 mM Tris pH 7.5, 150 mM KCl, 15 mM MgCl2, 1 mM CaCl2, 250 mM sucrose, 0.5% Igepal-630, 0.5% sodium deoxycholate, cyclohexamide, heparin), overnight at 4°C; captured mRNA sequenced; only the target purified
APP-Fc (mouse) = APP-Fc (mouse) (UniProt P12023); experiment: as above

binding (LRTM2-Fc (mouse) [1]): binds
B1: TNR (nascent polypeptide on polyribosomes) (protein, UniProt Q8BYI9 32-1358)
chain: RLEVTTERAQRQTVEEEGGASSYNTSSKEQPMVFNHVYNINVPLESLCSSGLEASAEQDMSAEDDTLAEYIGQTSDHESQVTFTHKINLPKKACPCASSSQVLQELLSRIEMLEREVSLLRDQCNTNCCQESAATGQLDYVPHCSGHGNFSFESCGCICNEGWFGKNCSEPYCPLGCSSRGVCVDGQCICDSEYSGDDCSELRCPTDCSSRGLCVDGECVCEEPYTGEDCRELRCPGDCSGKGQCANGTCLCQEGYAGEDCSQRRCLNACSGRGHCQEGLCICEEGYQGPDCSAVAPPEDLRVAGISDRSIELEWDGPMAVTEYVISYQPTALGGLQLQQRVPGDWSGVTIMELEPGLTYNISVYAVISNILSLPITAKVATHLSTPQGLQFKTITETTVEVQWEPFSFSFDGWEISFIPKNNEGGVIAQLPSDVTSFNQTGLKPGEEYIVNVVALKEQARSPPTSASVSTVIDGPTQILVRDVSDTVAFVEWTPPRAKVDFILLKYGLVGGEGGKTTFRLQPPLSQYSVQALRPGSRYEVSISAVRGTNESEASSTQFTTEIDAPKNLRVGSRTATSLDLEWDNSEAEAQEYKVVYSTLAGEQYHEVLVPKGIGPTTKTTLTDLVPGTEYGVGISAVMNSKQSIPATMNARTELDSPRDLMVTASSETSISLIWTKASGPIDHYRITFTPSSGISSEVTVPRDRTSYTLTDLEPGAEYIISITAERGRQQSLESTVDAFTGFRPISHLHFSHVTSSSVNITWSDPSPPADRLILNYSPRDKEEDMLEVLLDATKRHAVLMGLQPATEYIVNLVAVHGTVTSEPIVGSITTGIDPPKNITISNVTKDSLTVSWSSPVAPFDYYRVSYRPTQVGRLDSSVVPNTVTEFAITRLYPATEYEISLNSVRGREESERICTLVHTAMDSPMDLIATNITPTEALLQWKAPMGEVENYVIVLTHFAIAGETILVDGVSEEFQLVDLLPSTHYTVTMYATSGPLMSGTIATNFSTLLDPPDNLTASEVTRQSALISWQPPRAAIENYVLTYKSTDGSRKELIVDAEDTWIRLEGLSENTDYTVLLQAAQEATRSSLTSTVFTTGGRVFSHPQDCAQHLMNGDTLSGVYTIFLNGELSHKLQVYCDMTTDGGGWIVFQRRQNGQTDFFRKWADYRVGFGNLEDEFWLGLDNIHRITAQGRYELRVDMRDGQEAVFAYYDKFAVEDSRSLYKIRIGSYNGTAGDSLSYHQGRPFSTEDRDNDVAVTNCAMSYKGAWWYKNCHRTNLNGKYGESRHSQGINWYHWKGHEFSIPFVEMKMRPYIHRLTAGRKRRALKF

binding (LRTM2-Fc (mouse) [2]): binds
B2: TNR-OLLAS (protein, UniProt Q8BYI9 32-1358)
chain: RLEVTTERAQRQTVEEEGGASSYNTSSKEQPMVFNHVYNINVPLESLCSSGLEASAEQDMSAEDDTLAEYIGQTSDHESQVTFTHKINLPKKACPCASSSQVLQELLSRIEMLEREVSLLRDQCNTNCCQESAATGQLDYVPHCSGHGNFSFESCGCICNEGWFGKNCSEPYCPLGCSSRGVCVDGQCICDSEYSGDDCSELRCPTDCSSRGLCVDGECVCEEPYTGEDCRELRCPGDCSGKGQCANGTCLCQEGYAGEDCSQRRCLNACSGRGHCQEGLCICEEGYQGPDCSAVAPPEDLRVAGISDRSIELEWDGPMAVTEYVISYQPTALGGLQLQQRVPGDWSGVTIMELEPGLTYNISVYAVISNILSLPITAKVATHLSTPQGLQFKTITETTVEVQWEPFSFSFDGWEISFIPKNNEGGVIAQLPSDVTSFNQTGLKPGEEYIVNVVALKEQARSPPTSASVSTVIDGPTQILVRDVSDTVAFVEWTPPRAKVDFILLKYGLVGGEGGKTTFRLQPPLSQYSVQALRPGSRYEVSISAVRGTNESEASSTQFTTEIDAPKNLRVGSRTATSLDLEWDNSEAEAQEYKVVYSTLAGEQYHEVLVPKGIGPTTKTTLTDLVPGTEYGVGISAVMNSKQSIPATMNARTELDSPRDLMVTASSETSISLIWTKASGPIDHYRITFTPSSGISSEVTVPRDRTSYTLTDLEPGAEYIISITAERGRQQSLESTVDAFTGFRPISHLHFSHVTSSSVNITWSDPSPPADRLILNYSPRDKEEDMLEVLLDATKRHAVLMGLQPATEYIVNLVAVHGTVTSEPIVGSITTGIDPPKNITISNVTKDSLTVSWSSPVAPFDYYRVSYRPTQVGRLDSSVVPNTVTEFAITRLYPATEYEISLNSVRGREESERICTLVHTAMDSPMDLIATNITPTEALLQWKAPMGEVENYVIVLTHFAIAGETILVDGVSEEFQLVDLLPSTHYTVTMYATSGPLMSGTIATNFSTLLDPPDNLTASEVTRQSALISWQPPRAAIENYVLTYKSTDGSRKELIVDAEDTWIRLEGLSENTDYTVLLQAAQEATRSSLTSTVFTTGGRVFSHPQDCAQHLMNGDTLSGVYTIFLNGELSHKLQVYCDMTTDGGGWIVFQRRQNGQTDFFRKWADYRVGFGNLEDEFWLGLDNIHRITAQGRYELRVDMRDGQEAVFAYYDKFAVEDSRSLYKIRIGSYNGTAGDSLSYHQGRPFSTEDRDNDVAVTNCAMSYKGAWWYKNCHRTNLNGKYGESRHSQGINWYHWKGHEFSIPFVEMKMRPYIHRLTAGRKRRALKF

More lines, now with the values behind:

B3: CNTN4 long isoform (nascent polypeptide on polyribosomes) (protein, UniProt Q69Z26-1 19-1000)
chain: DDYTLHGPVFVQEPSHVMFPLDSEEKKVKLSCEVKGNPKPHIRWKINGTDVDIGMDFRYSVVDGSLLINNPNKTQDAGTYQCIATNSFGTIVSREAKLQFAYLENFKTRTRSTVSVRRGQGMVLLCGPPPHSGELSYAWIFNEYPSYQDNRRFVSQETGNLYIAKVEKSDVGNYTCVVTNTVTNHKVLGPPTPLILRNDGVMGEYEPKIEVQFPETVPAEKGTTVKLECFALGNPVPTILWRRADGKPIARKARRHKSNGILEIPNFQQEDAGSYECVAENSRGKNVAKGQLTFYAQPNWVQIINDIHVAMEESVFWECKANGRPKPTYRWLKNGDPLLTRDRIQIEQGTLNITIVNLSDAGMYQCVAENKHGVIFSSAELSVIAESPDFSRTLLKRVTLVKVGGEVVIECKPKASPRPVYTWRKGREILRENERITISEDGNLRIINVTKSDAGSYTCIATNHFGTASSTGNVIVKDPTKVMVPPSSMDVTVGESIVLPCQVTHDHSLDIVFTWTFNGHLIDFDKDGDHFERVGGQDSAGDLMIRNIQLKHAGKYVCMVQTSVDKLSVAADLIVRGPPGPPEAVTIDEITDTTAQLSWRPGPDNHSPITMYVIQARTPFSVGWQAVNTVPDLVDGKTFTATVVGLNPWVEYEFRTVAANVIGIGEPSRPSEKRRTEEALPEVTPANVSGGGGSKSELVITWETVPEELQNGRGFGYVVAFRPHGKMIWMLTVLASADASRYVFRNESVRPFSPFEVKVGVFNNKGEGPFSPTTLVYSAEEEPTKPPASIFARSLSATDIEVFWASPIGKNRGRIQGYEVKYWRHDDKEENAKKIRTVGNQTSTKITNLKGSALYHLSVKAYNSAGTGPSSATVNVTTRKPPPSQPPGNIIWNSSDSKIILNWDQVKALDNESEVKGYKVLYRWNRQSSTSVIETNKTSVELSLPFDEDYIIEIKPFSDGGDGSSSEQIRIPKISNSYARGS
binding (PTPRG-Fc (mouse)): binds

B4: CNTN4 short isoform (nascent polypeptide on polyribosomes) (protein, UniProt Q69Z26-2 19-705)
chain: DDYTLHGPVFVQEPSHVMFPLDSEEKKVKLSCEVKGNPKPHIRWKINGTDVDIGMDFRYSVVDGSLLINNPNKTQDAGTYQCIATNSFGTIVSREAKLQFAYLENFKTRTRSTVSVRRGQGMVLLCGPPPHSGELSYAWIFNEYPSYQDNRRFVSQETGNLYIAKVEKSDVGNYTCVVTNTVTNHKVLGPPTPLILRNDGVMGEYEPKIEVQFPETVPAEKGTTVKLECFALGNPVPTILWRRADGKPIARKARRHKSNGILEIPNFQQEDAGSYECVAENSRGKNVAKGQLTFYAQPNWVQIINDIHVAMEESVFWECKANGRPKPTYRWLKNGDPLLTRDRIQIEQGTLNITIVNLSDAGMYQCVAENKHGVIFSSAELSVIAESPDFSRTLLKRVTLVKVGGEVVIECKPKASPRPVYTWRKGREILRENERITISEDGNLRIINVTKSDAGSYTCIATNHFGTASSTGNVIVKDPTKVMVPPSSMDVTVGESIVLPCQVTHDHSLDIVFTWTFNGHLIDFDKDGDHFERVGGQDSAGDLMIRNIQLKHAGKYVCMVQTSVDKLSVAADLIVRGPPGPPEAVTIDEITDTTAQLSWRPGPDNHSPITMYVIQARTPFSVGWQAVNTVPDLVDGKTFTATVVGLNPWVEYEFRTVAANVIGIGEPSRPSEKRRTEEAQNTGDQRG
binding (PTPRG-Fc (mouse)): binds

B5: Cyclin-dependent kinase 11b (nascent polypeptide on polyribosomes) (protein, UniProt P24788 1-784)
chain: MGDEKDSWKVKTLDEILQEKKRRKEQEEKAEIKRLKNSDDRDSKRDSLEEGELRDHRMEITIRNSPYRREDSMEDRGEEDDSLAIKPPQQMSRKEKAHHRKDEKRKEKRRHRSHSAEGGKHARVKEKEREHERRKRHREEQDKARREWERQKRREMAREHSRRERDRLEQLERKRERERKLREQQKEQREQKERERRAEERRKEREARREVSAHHRTMREEYSDKGKVGHWSRSPLRPPRERFEMGDNRKPVKEEKVEERDLLSDLQDISDSERKTSSAESSSAESGSGSEEEEEEEEEEEEEEGSTSEESEEEEEEEEEEEEEETGSNSEEASEQSAEEVSDEEMSEDEDRENENHILVVPESRFDRDSGDSEEGEEEVGEGTPQSSAPTEGDYVPDSPALSPIELKQELPKYLPALQGCRSVEEFQCLNRIEEGTYGVVYRAKDKKTDEIVALKRLKMEKEKEGFPITSLREINTILKAQHPNIVTVREIVVGSNMDKIYIVMNYVEHDLKSLMETMKQPFLPGEVKTLMIQLLSGVKHLHDNWILHRDLKTSNLLLSHAGILKVGDFGLAREYGSPLKAYTPVVVTLWYRAPELLLGAKEYSTAVDMWSVGCIFGELLTQKPLFPGKSDIDQINKIFKDLGTPSEKIWPGYNDLPAVKKMTFSEYPYNNLRKRFGALLSDQGFDLMNKFLTYYPGRRINAEDGLKHEYFRETPLPIDPSMFPTWPAKSEQQRVKRGTSPRPPEGGLGYSQLGDDDLKETGFHLTTTNQGASAAGPGFSLKF
binding (APP-Fc (mouse)): binds
